This passage reports viability results from PubChem BioAssay AID1117359 (Southern Research Institute, 2015).

Each structure is given as a SMILES string. “And” between values parts separate entries of the source, which are not always exact repeats. Equal entries are not always repeated. Hit rate of the full screen: of about 1,500 compounds, about 460 (31%) were called active.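 Rule for the calls: active = viability at or below 80% at any tested concentration, marking the compound as toxic; inactive = the rest.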 The entries are a selection whose mix differs from that of the whole data set. Results with a measured potency or affinity are listed apart.

The term viability denotes a read-out of living cells in per cent, often relative to untreated cells.

This assay is described as follows: viability loss in THP-1 monocytes – THP-1 cells, cytotoxicity control for Vif-APOBEC3G degradation inhibitor project, dose response (AID 1117359). The conditions noted are these: THP-1 viability, CellTiter-Glo luminescence, 72 h; at 40 µM (top of the series).
For `N/C(=N\N=C/c1ccc(-c2ccc(O)c(C(=O)O)c2)o1)N[N+](=O)[O-]`, the viability is inactive: 85.1%. As to `COCOC1CCC2C3CCC4=CC(=O)CCC4=C3C=CC12C` (configuration not stated), the viability was inactive: 103%. As to `CCN(CC)C(=O)c1ccc2c(c1)C1C(Cl)C(Sc3ccccc3[N+](=O)[O-])CC1C(C(=O)O)N2` (configuration not stated), the viability is inactive: 102%. For `CN1C(=O)/C(=C/C=C/c2ccco2)C(=O)NC1=S` the value was inactive: 97.3%. Consider `O=C1NC(=O)C(=Cc2ccc(SC3CCCCC3)o2)C(=O)N1`, for which the viability was inactive: 90.6%. Next, `O=C1C=Cc2ccccc2C1=O`: inactive: 102%; `O=C1NC(=O)N(Cc2ccco2)C(=O)/C1=C/C=C/c1ccco1`: inactive: 86.6%.

In the case of `CSc1ccc(C(=O)C2CCCN(Cc3ccn[nH]3)C2)cc1` (configuration not stated), the viability was inactive: 87.4%. As for `Cc1cccc(OCCn2cccc2/C=C2/C(=O)NC(=O)N(Cc3ccco3)C2=O)c1`, the viability was inactive: 87.6%.

Regarding `CCN(CC)c1ccc(N=Cc2c(O)n(CCc3ccc(OC)c(OC)c3)c(=O)[nH]c2=O)cc1`, the viability is inactive: 101%. Next, `CN1CCN(c2ccc(N)cc2)CC1`: inactive: 113%; `COc1ccc(CN2C(=O)NC(=O)/C(=C/c3ccc([N+](=O)[O-])o3)C2=O)cc1`: inactive: 96%; `O=C(O)Cn1cc(/C=C2\C(=O)NC(=O)N(Cc3ccco3)C2=O)c2ccccc21`: inactive: 87.1%. Next, `CCN1C(=O)N(CC)C(=O)C2(Cc3ccccc3N3CCN(c4ccccc4)CC32)C1=O` (configuration not stated): inactive: 86.3%.

In the case of `Cc1cc(/C=C2\C(=O)NC(=O)N(c3cccc(F)c3)C2=O)c(C)n1-c1cc(C(=O)O)cc(C(=O)O)c1`, the viability is inactive: 85.9%. `CCN(CC)C(=O)c1ccc2c(c1)C1C=CCC1C(C(=O)O)N2` (configuration not stated): the viability is inactive: 91.2%. For `COc1ccc(-n2c(O)c(C=NCCN(C)C)c(=O)[nH]c2=O)cc1` the value was inactive: 110%; for `CCN(CC)CCN=Cc1c(O)n(Cc2ccco2)c(=O)[nH]c1=O`, inactive: 95.4%. For `CC(Cc1ccc(O)cc1)NCC(O)c1ccc(O)c(O)c1` (configuration not stated) the value was inactive: 99.5%.

Take `O=C1NC(=O)N(c2cccc(Cl)c2)C(=O)/C1=C\c1ccc(Sc2nc3ccccc3[nH]2)o1`: the viability was inactive: 106%. Next, `NNC(=O)CN1C(=O)CN=C(c2ccccc2)c2cc(Br)ccc21`: inactive: 115%; `O=C1CC23c4ccccc4N4C(=O)CC5OCC=C6CN1C2CC6C5C43` (configuration not stated): inactive: 94%; `Cn1c(O)c(/C=N/NC(=O)c2ccncc2)c(=O)[nH]c1=S`: inactive: 91.3%. Next, `Cc1cccc(N2C(=O)NC(=O)/C(=C/c3cc4c(cc3[N+](=O)[O-])OCO4)C2=O)c1`: inactive: 96.4%; `O=C(O)c1ccc2c(c1)C1C(Cl)C(Sc3ccccc3[N+](=O)[O-])CC1C(c1cccc([N+](=O)[O-])c1)N2` (configuration not stated): inactive: 93.6%; `COc1ccccc1N1C(=O)NC(=O)/C(=C/c2ccc([N+](=O)[O-])s2)C1=O`: inactive: 80.4%. Next, `O=C1NC(=S)N(c2ccc(F)cc2)C(=O)/C1=C\c1ccoc1`: inactive: 89.7%. Regarding `Cc1ccc(N2C(=O)NC(=O)/C(=C\C=C\c3ccco3)C2=O)cc1`, the viability is inactive: 103%. With `O=C1NC(=O)C(=CN2CCc3ccccc32)C(=O)N1`, the viability was inactive: 86.7%. For `Cc1cccc(N2C(=O)/C(=C/c3ccc(CN(CCC#N)S(C)(=O)=O)o3)C(=O)NC2=S)c1` the value was inactive: 111%. Next, `Oc1ccc(C[C@H]2NCCc3cc(O)c(O)cc32)cc1O`: inactive: 91%; `COc1ccc(CN2C(=O)NC(=O)/C(=C/c3ccc([N+](=O)[O-])s3)C2=O)cc1`: inactive: 95.2%. For the compound `O=C1NC(=O)C(=Cc2ccco2)C(=O)N1`, the viability was inactive: 107%. For `CCc1ccc(N2C(=O)NC(=O)/C(=C\C=C\c3ccco3)C2=O)cc1` the value was inactive: 94.9%.

Consider `Cc1ccc(N2C(=O)/C(=C/c3ccc(CN(CCC#N)S(C)(=O)=O)o3)C(=O)NC2=S)cc1`, for which the viability is inactive: 103%. Next, `CN(C)[C@@H]1C(=O)C(C(N)=O)=C(O)[C@@]2(O)C(=O)C3=C(O)c4c(O)ccc(Cl)c4[C@@](C)(O)C3C[C@@H]12` (some centres not stated): inactive: 98.9%; `CC1=C(C(=O)O)N2C(=O)[C@@H](NC(=O)CCCC(=O)O)[C@H]2SC1`: inactive: 113%. `O=C1NC(=O)N(c2ccc(Cl)cc2)C(=O)/C1=C\c1ccc(Sc2nc3ccccc3[nH]2)o1`: the viability was inactive: 105%. For `CC(=O)Nc1ccc(S(=O)(=O)N2Cc3cnnn3-c3ccccc3C2C#N)cc1` (configuration not stated) the value was inactive: 99.5%. Take `Oc1ccc(/C=N/NP(=S)(c2ccccc2)c2ccccc2)c(O)c1O`: the viability is inactive: 85%. `C=CCN1C(=O)C2(C(C(=O)OCC)=C(N)Oc3ccccc32)c2c1c1ccccc1oc2=O` (configuration not stated): the viability is inactive: 94.2%. With `O=S(=O)(O)C(=Cc1ccccc1)c1ccccc1` (tested in a mixture with another compound), the viability is inactive: 86.7%. For `O=C1CC=C2C3CC4N(CCC45c4cc(O)c(O)cc4N1C25)CC3=CCBr` (configuration not stated) the value was inactive: 100%; for `COc1cccc(N2C(=O)NC(=O)/C(=C/c3ccc([N+](=O)[O-])s3)C2=O)c1`, inactive: 83.2%. For `O=C(O)C1Cc2ccccc2N2CCCC12` (configuration not stated) the value was inactive: 106%; for `O=C1NC(=S)N(c2ccccc2)C(=O)/C1=C/c1ccco1`, inactive: 85.1%; for `Cc1cc(/C=C2\C(=O)NC(=O)N(Cc3ccco3)C2=O)c(C)n1-c1ccc(O)cc1`, inactive: 96.5%. Next, `O=C(O)CC1OCC=C2CN3CCC45C6=CC(=O)C(=O)C([N+](=O)[O-])=C6NC4C1C2CC35` (configuration not stated): inactive: 92.6% and inactive: 105%. Turning to `CC(C)c1ccc(C2N3CCCN23)cc1` (configuration not stated), the viability is inactive: 105%. For `O=C1NC(=O)N(c2ccccc2)C(=O)/C1=C\c1ccc([N+](=O)[O-])s1` the value was inactive: 84.6%; for `O=C(O)c1cccc2c1NC(C(=O)O)C1CC(Sc3ccccc3[N+](=O)[O-])C(Cl)C21` (configuration not stated), inactive: 105%; for `CCSC1=NN1c1cc(C)nc(N)n1`, inactive: 92.7%.
